# Experimental data from PubChem BioAssay AID493014 (National Center for Advancing Translational Sciences (NCATS), 2011).
# About 170 (0.05%) of roughly 340,000 compounds were called active. Inconclusive results, whose numbers are uncertain, are shown with a selection of clear calls. Calls come from the whole dose curve; as a rule, active = well fitted inhibition curve with a large enough effect in the signal ratio, with a control signal flat (not every such curve was filed as active); inconclusive = small, poorly fitted or top-dose-only effect, or effect the other way, or a change in a side signal; inactive = flat fitted curve, though single readings scatter; the % refers to the signal ratio. Potencies beside an inconclusive call are fits to weak or partial responses and may not hold up.
# Experiment: qHTS Assay to Find Inhibitors of Chronic Active B-Cell Receptor Signaling;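 for activity change, negative = inhibition: plate controls were basal doxycycline-induced cells for no effect and cells given 10 µM MG132 for full effect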
# Settings: ABC-DLBCL IkBa-CBG/CBR reporter, luminescence ratio (green luciferase fused to IkBa over red control in TMD8 lymphoma cells), 4 h; activity change, negative = inhibition: at 46.1 µM (top of the series) unless noted
# Summary of the method: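 TMD8 human ABC-DLBCL cells with doxycycline-inducible IκBα–green luciferase fusion and unfused red luciferase, in 0.5% FBS medium; compounds up to 46 uM, 4 h at 37C. Green/red luminescence ratio, filter-overlap corrected, fitted to concentration-response curves.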
# Potency is the fitted concentration of half-maximal effect.
Compound,"activity change, negative = inhibition",Potency
COc1ccc2[nH]c3c(c2c1)CCN1C(=O)C(CC(=O)NCC24CC5CC(CC(C5)C2)C4)C[C@H](C(=O)N2CCOCC2)[C@@]31CCC1CCCC1 (stereo not given in full),inconclusive: 0.049%,
COc1cccc(-n2nnnc2SCC(=O)N2CCCc3ccccc32)c1,inconclusive: -3.32%,
CC(C)=CCC/C(C)=C/CNC(=O)C[C@H]1C[C@H](C(=O)N2CCOCC2)[C@@]2(C)c3[nH]c4cc(CCC(=O)N(C)C)ccc4c3CCN2C1=O,,"inconclusive: 16.4 µM [falling, partial curve]"
CC(=O)c1ccc(N2CCN(S(=O)(=O)c3cccc(S(=O)(=O)N4CCOCC4)c3)CC2)cc1,,"inconclusive: 23.1 µM [falling, partial curve, poor fit]"
O=C(COC(=O)c1ccccc1SCC(=O)N1CCCC1)NC1CCCCC1,inconclusive: 9.29%,
CCc1nc2oc3ccccc3c(=O)c2cc1C(=O)OC,inconclusive: -0.621%,
O=C(O)Cc1sc(-c2ccccc2)nc1-c1ccccc1,inactive: 8.49%,
O=C(NCC(c1ccco1)N1CCN(c2ccc(F)cc2)CC1)C(=O)NC1CC1 (stereo not given),inconclusive: -9.4%,
O=C(NCCC1CCCCN1S(=O)(=O)c1cccs1)C(=O)Nc1ccc(F)cc1F (stereo not given),inconclusive: 4.42%,
COc1ccc2oc(C(=O)NC3(C)CCS(=O)(=O)C3)c(C)c2c1 (stereo not given),inconclusive: 0.901%,
CCOC(=O)c1c(NC(=O)c2cc(-c3ccccc3)on2)sc2c1CCCC2,,"inconclusive: 15.8 µM [falling, partial curve, poor fit]"
COc1ccccc1OCCSc1nc2ccccc2n1CCO,,"inconclusive: 12.6 µM [falling, partial curve, poor fit]"
COCCNC(=O)c1nc2ccccc2s1,inconclusive: -16.5%,
Cc1ccc(C(=O)N/C(=C\c2ccc(-c3ccc([N+](=O)[O-])cc3)o2)C(=O)NC2CCS(=O)(=O)C2)cc1 (stereo not given),inconclusive: 7.33%,
CCc1nnc(NC=C2C(=O)OC(C)(C)OC2=O)s1,,"inconclusive: 0.708 µM [falling, full curve, poor fit]"
C=C(C)c1cccc(C(C)(C)NC(=O)NCc2ccc(OC)c(OC)c2)c1,inconclusive: 21.3%,
CCn1nc(C(=O)OCC(=O)Nc2nc(-c3ccc(OC)cc3)cs2)c2ccccc2c1=O,inactive: -5.23%,
O=C(Nc1cccc(S(=O)(=O)N2CCCC2)c1)c1ccc2c(=O)n3c(nc2c1)CCCCC3,inconclusive: -0.476%,
Cc1ccc(Nc2ncc(C(=O)NCCCN3CCN(C)CC3)c3ccccc23)cc1Cl,inactive: -0.661%,
C=CCn1cc(C(=O)OC)c(=O)c2cc(S(=O)(=O)N3CCC(C)CC3)ccc21,inconclusive: 3.74%,
O=C1C2CC=C(Cl)CC2C(=O)N1CN(Cc1ccco1)CN1C(=O)C2CC=C(Cl)CC2C1=O (stereo not given),inconclusive: -0.0774%,
CCCCOc1cccc(/C=N/NC(=O)c2csc(C)c2C)c1,,"inconclusive: 5.62 µM [falling, partial curve, poor fit]"
Cc1ccc(C2N(c3ccccc3)C(=O)N3CCCN23)cc1 (stereo not given),inactive: 3.89%,
Cc1c(C(=O)OCCOc2ccccc2)[nH]c2c1C(=O)CCC2,,"inconclusive: 20.6 µM [falling, partial curve]"
COc1ccc(Sc2nnc(Cc3ccccc3)c3ccccc23)cc1,,"inconclusive: 5.62 µM [falling, single point]"

Compound,"activity change, negative = inhibition",Potency
COc1ccc(N2CCN(c3cc(C)c4ccccc4n3)CC2)cc1,inconclusive: 4.14%,
O=C(Cn1[nH]c(=O)c2ccccc2c1=O)OCC(=O)c1ccc(F)c(F)c1,inconclusive: -3.67%,
O=c1c2c(nc3nc(COc4ccccc4)[nH]n13)CCC2,,"inconclusive: 1.64 µM [rising, full curve, poor fit]"
COc1ccc(C(=O)Nc2sc(C)c(C)c2CN2CCOCC2)cc1,inconclusive: -8.84%,
Cc1cccc(C2N3CC4(C(C)C)CN2CC(C(C)C)(C3)C4=O)c1 (stereo not given),inconclusive: 18.9%,
CCc1cccc2c(C(=O)COC(=O)/C=C/c3ccc(O)c(OC)c3)c[nH]c12,,"inconclusive: 29.1 µM [falling, single point]"
O=C(Nc1nnc(-c2ccco2)o1)c1ccc(S(=O)(=O)N2CCCC2)cc1,inconclusive: 10.7%,
COC(=O)C1CCCN1S(=O)(=O)c1ccccc1NC(=O)c1cc(OC)c(OC)c(OC)c1 (stereo not given),inactive: -10.4%,
COc1ccccc1-c1noc(CCC(=O)Nc2ccccc2Cl)n1,inconclusive: -18.2%,
O=C(CN1C(=O)NC2(CCCC2)C1=O)Nc1nc(-c2ccc(F)cc2)cs1,inconclusive: 1.78%,
CCc1ccc(OCC2c3cc(OC)c(OC)cc3CCN2C(=S)NC)cc1 (stereo not given),,"inconclusive: 31.6 µM [falling, single point]"
COC(=O)C(C)N1C(=O)S/C(=C/c2cc(C)n(-c3ccccn3)c2C)C1=O (stereo not given),inconclusive: -15.2%,
COCCCNC(=O)Cn1nnc(-c2ccc(NC(=O)c3ccccc3F)cc2)n1,,"inconclusive: 29.1 µM [falling, single point]"
COC(=O)C(Cc1c[nH]c2ccccc12)NC(=O)C1CC1 (stereo not given),inconclusive: -9.47%,
CC(C)(C)c1ccc(-c2n[nH]c(=S)n2/N=C/c2ccncc2)cc1,inactive: -2.18%,
Nc1cc(C(=O)c2ccccc2)ccc1N1CCOCC1,inactive: -15.1%,
Cc1cnc(NC(=O)c2ccc(F)c(S(=O)(=O)N3CCOCC3)c2)s1,inconclusive: -0.492%,
Cc1c(NS(=O)(=O)c2ccc(N)cc2)c(=O)n(-c2ccccc2)n1C,inconclusive: 5.74%,
Cc1ccc(C(=O)Nc2ccc(N3CCCC3)cc2)c(C)c1,,"inconclusive: 10 µM [falling, partial curve, poor fit]"
CN(Cc1cnn(-c2ccc(F)cc2)c1)Cc1nc(Cc2ccccc2)no1,inconclusive: 0.945%,
CC(C)(C)C(=O)/C(=C/c1ccc(Cl)cc1)n1cncn1,,"inconclusive: 15.8 µM [falling, partial curve, poor fit]"
CCOCCOC(=O)c1[nH]c2c(c1C)C(=O)CC(c1ccc(N(C)C)cc1)C2 (stereo not given),inconclusive: -2.89%,
Cc1ccc(CNC(=O)c2cc(-c3cc(C)cc(C)c3O)n[nH]2)cc1,,"inconclusive: 11.2 µM [falling, partial curve]"
COc1cccc(/C=C2\Sc3ccc(C(=O)NCc4cccnc4)cc3N(C)C2=O)c1,,"inconclusive: 11.2 µM [falling, partial curve, poor fit]"
CN(C#N)c1nccc(-c2cccs2)n1,inactive: -18.8%,

# Arranged by count of non-hydrogen atoms (falling): 4 of the compounds above.
Compound,"activity change, negative = inhibition",Potency
O=C(Cn1[nH]c(=O)c2ccccc2c1=O)OCC(=O)c1ccc(F)c(F)c1,inconclusive: -3.67%,
Cc1c(NS(=O)(=O)c2ccc(N)cc2)c(=O)n(-c2ccccc2)n1C,inconclusive: 5.74%,
Cc1cccc(C2N3CC4(C(C)C)CN2CC(C(C)C)(C3)C4=O)c1 (stereo not given),inconclusive: 18.9%,
Cc1ccc(C(=O)Nc2ccc(N3CCCC3)cc2)c(C)c1,,"inconclusive: 10 µM [falling, partial curve, poor fit]"

# More structures follow.

Compound,"activity change, negative = inhibition",Potency
O=C(CCc1ccccc1)NCc1ccc(F)cc1,inconclusive: 6.02%,
O=C(Nc1ccc(-n2ccc(C(F)(F)F)n2)cc1)c1cccs1,inconclusive: 4.18%,
CCCOc1ccc(S(=O)(=O)n2cc(Br)c(=O)[nH]c2=O)cc1,inconclusive: -7.22%,
Cc1occc1C(=O)Nc1nnc(-c2cccs2)s1,inconclusive: -12.2%,
CCS(=O)(=O)Nc1ccc(C2=NN(C(=O)c3ccco3)C(c3cccc(F)c3)C2)cc1 (stereo not given),inconclusive: 1.29%,
Cc1ccc(-n2sc3ccccc3c2=O)cc1S(=O)(=O)N1CCCCC1,,"inconclusive: 3.66 µM [falling, partial curve]"
COCCn1c(SCC(=O)c2c[nH]c3ccccc23)nnc1-c1ccncc1,inconclusive: -11.2%,
Cn1nc(-c2ccc(Cl)cc2)c2cc(C(=O)NCC3CCCO3)sc21 (stereo not given),inconclusive: -2.76%,
Cc1cc(N/C=C/C(=O)c2ccc(Br)cc2)no1,inconclusive: 11.2%,
COc1cccc(-c2nnc(NC(=O)c3ccc(S(=O)(=O)N4CCOCC4)cc3)o2)c1,,"inconclusive: 20 µM [falling, partial curve, poor fit]"
N#Cc1c(N)nc2c(c1N)CC(CCl)O2 (stereo not given),inactive: 0.749%,
CC1(C)COC(c2cccn2Cc2ccccc2Cl)=N1,inconclusive: 1.97%,
Cc1cc(NC(=O)CSc2nnc(-c3cccc(F)c3)n2N)no1,,"inconclusive: 14.6 µM [rising, partial curve, poor fit]"
CN(C(=O)CSc1nc2ccc(Br)cc2c(=O)n1Cc1ccco1)C1CCS(=O)(=O)C1 (stereo not given),inconclusive: -1.56%,
COc1ccc(N2CCN(C(=O)COC(=O)c3c(-c4ccccc4)noc3C)CC2)cc1,inactive: -0.744%,
CN(C)CCNC(=O)c1cc2c(s1)-c1ccc(Cl)cc1SC2,,"inconclusive: 35.5 µM [falling, single point]"
O=C(CCl)NN1C(=O)NC2(CCCCC2)C1=O,inconclusive: 11.3%,
CCCCN(c1ccccc1)c1ncnc2c1cnn2-c1ccc(Cl)cc1,,"inconclusive: 1.41 µM [rising, full curve, poor fit]"
O=c1[nH]c(C2CCN(S(=O)(=O)/C=C/c3ccccc3)CC2)nc2c1nnn2Cc1ccccc1,inconclusive: 9.21%,
CCOc1c(CNCCNC(=O)c2nonc2N)cccc1OC,inactive: -0.125%,
O=C(NNS(=O)(=O)c1ccccc1[N+](=O)[O-])c1ccc(O)cc1,,"inconclusive: 8.2 µM [falling, partial curve, poor fit]"
CC1CCC(NC(=O)C2COc3ccccc3O2)CC1 (stereo not given),inconclusive: 27.1%,
O=C1CCCC2=C1C1(CCCC1)N=C(Nc1nc3ccccc3o1)N2,,"inconclusive: 12.6 µM [falling, partial curve]"
CCOc1ccc(CCNC(=O)CSc2cc(=O)n(C)c3ccccc23)cc1OCC,inconclusive: -14.5%,
Cc1cc(C(=O)COC(=O)c2cccnc2Cl)c(C)n1CC1CCCO1 (stereo not given),inconclusive: 3.42%,

# Pulled by compound from the list above:
Compound,"activity change, negative = inhibition",Potency
Cn1nc(-c2ccc(Cl)cc2)c2cc(C(=O)NCC3CCCO3)sc21 (stereo not given),inconclusive: -2.76%,
Cc1cc(N/C=C/C(=O)c2ccc(Br)cc2)no1,inconclusive: 11.2%,
